Measured values: patent US20080194611A1, “Modulation of Cell Barrier Dysfunction” (priority 2005, published 2008)
Results are given in words; binding and its absence hold for the method and conditions named. Some binding calls cover weakened binding; strength is not graded here.

Chains of the proteins cited; added tags and fusions are not shown. Residues count along the entry.
UniProt P01579, residues 24-166: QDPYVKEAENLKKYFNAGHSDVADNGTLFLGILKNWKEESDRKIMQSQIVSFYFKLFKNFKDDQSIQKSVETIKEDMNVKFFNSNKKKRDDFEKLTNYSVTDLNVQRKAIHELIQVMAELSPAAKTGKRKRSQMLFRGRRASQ

Key:
[1] = target: T1, P. aeruginosa outer membrane porin OprF (Pseudomonas aeruginosa (strain PAO1)) (UniProt P13794); experiment: summary of the examples' results
T1 sequence: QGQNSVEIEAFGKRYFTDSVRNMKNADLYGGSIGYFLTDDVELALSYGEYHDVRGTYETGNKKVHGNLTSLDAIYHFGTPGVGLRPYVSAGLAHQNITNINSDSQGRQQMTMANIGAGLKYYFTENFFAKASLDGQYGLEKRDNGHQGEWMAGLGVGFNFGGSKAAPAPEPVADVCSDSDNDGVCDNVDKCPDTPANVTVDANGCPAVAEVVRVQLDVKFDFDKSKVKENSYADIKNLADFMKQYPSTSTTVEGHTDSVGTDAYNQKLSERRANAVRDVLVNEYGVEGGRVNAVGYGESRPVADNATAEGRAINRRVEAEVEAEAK

[2] = target: T1, P. aeruginosa outer membrane porin OprF (Pseudomonas aeruginosa (strain PAO1)); experiment: binding assay with purified OprF
[3] = target: T1, P. aeruginosa outer membrane porin OprF (Pseudomonas aeruginosa (strain PAO1)); experiment: figure legend (graphs, bar charts, immunoblots)

Measured: binding

recombinant human IFN-γ (rH IFN-γ) (from UniProt P01579 24-166) (ligand)
binds: all assays above
